Data from US12670969B2, “Network medicine framework for identifying drug repurposing opportunities” (Northeastern University, priority 2020, dated 2026).
Some of these results come from one statement about several compounds together. At least one structure is not confirmed: it was looked up by name or label, or the drawing left a doubt. Some compounds share one range, which may span the group rather than tell each member.

System: SARS-CoV-2 strain USA-WA1/2020
Assay type: cell-based
Details: VeroE6 cells, drugs from 8 μM down to 8 nM, MOI about 0.2

Compound	drug-response classification (S, W, C, N) of effect on SARS-CoV-2 infection
C[C@H]1O[C@@H](O[C@H]2[C@@H](O)C[C@H](O[C@H]3[C@@H](O)C[C@H](O[C@H]4CC[C@@]5(C)[C@H](CC[C@@H]6[C@@H]5C[C@@H](O)[C@]5(C)[C@@H](C7=CC(=O)OC7)CC[C@]65O)C4)O[C@@H]3C)O[C@@H]2C)C[C@H](O)[C@@H]1O [digoxin]	S (Strong (S) or Weak (W) if the viral reduction was greater than 80% and 50%, respectively)
CC(=O)OC[C@H]1O[C@@H]([S-])[C@H](OC(C)=O)[C@@H](OC(C)=O)[C@@H]1OC(C)=O.CCP(CC)CC.[Au+] [auranofin]	S (Strong (S) or Weak (W) if the viral reduction was greater than 80% and 50%, respectively)
